T1: VgrG3 with a C-terminal haemagglutinin epitope tag (VgrG3-HA) (Chromobacterium violaceum ATCC 12472) (UniProt Q7NY43)
T1 sequence: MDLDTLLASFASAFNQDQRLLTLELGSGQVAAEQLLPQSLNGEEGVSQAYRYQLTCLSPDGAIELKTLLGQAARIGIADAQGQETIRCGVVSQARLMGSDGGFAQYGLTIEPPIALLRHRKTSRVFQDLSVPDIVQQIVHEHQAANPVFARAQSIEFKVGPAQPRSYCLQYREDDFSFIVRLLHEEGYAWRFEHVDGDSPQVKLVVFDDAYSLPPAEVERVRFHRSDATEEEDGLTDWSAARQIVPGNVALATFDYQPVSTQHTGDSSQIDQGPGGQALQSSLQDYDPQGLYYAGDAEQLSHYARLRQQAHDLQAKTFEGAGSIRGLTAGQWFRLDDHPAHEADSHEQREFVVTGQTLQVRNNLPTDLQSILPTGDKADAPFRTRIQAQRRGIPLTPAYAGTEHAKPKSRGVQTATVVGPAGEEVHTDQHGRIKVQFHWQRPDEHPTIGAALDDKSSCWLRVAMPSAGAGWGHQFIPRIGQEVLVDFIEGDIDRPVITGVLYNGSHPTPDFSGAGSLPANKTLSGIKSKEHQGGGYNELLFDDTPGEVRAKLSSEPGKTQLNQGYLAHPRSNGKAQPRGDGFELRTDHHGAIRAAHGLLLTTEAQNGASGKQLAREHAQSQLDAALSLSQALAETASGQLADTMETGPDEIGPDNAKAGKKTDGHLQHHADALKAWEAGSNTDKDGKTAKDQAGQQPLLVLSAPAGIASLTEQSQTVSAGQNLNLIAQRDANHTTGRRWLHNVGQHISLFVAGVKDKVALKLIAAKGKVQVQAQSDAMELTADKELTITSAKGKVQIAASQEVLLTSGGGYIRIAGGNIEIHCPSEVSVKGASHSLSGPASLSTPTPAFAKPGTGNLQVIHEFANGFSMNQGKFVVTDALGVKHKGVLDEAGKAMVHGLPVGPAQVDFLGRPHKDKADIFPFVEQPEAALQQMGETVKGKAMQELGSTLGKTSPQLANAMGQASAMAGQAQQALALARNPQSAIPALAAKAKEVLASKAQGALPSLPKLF

Protein sequences, listed by entry. Tags and fused reporters are not part of them.
UniProt Q7NY44: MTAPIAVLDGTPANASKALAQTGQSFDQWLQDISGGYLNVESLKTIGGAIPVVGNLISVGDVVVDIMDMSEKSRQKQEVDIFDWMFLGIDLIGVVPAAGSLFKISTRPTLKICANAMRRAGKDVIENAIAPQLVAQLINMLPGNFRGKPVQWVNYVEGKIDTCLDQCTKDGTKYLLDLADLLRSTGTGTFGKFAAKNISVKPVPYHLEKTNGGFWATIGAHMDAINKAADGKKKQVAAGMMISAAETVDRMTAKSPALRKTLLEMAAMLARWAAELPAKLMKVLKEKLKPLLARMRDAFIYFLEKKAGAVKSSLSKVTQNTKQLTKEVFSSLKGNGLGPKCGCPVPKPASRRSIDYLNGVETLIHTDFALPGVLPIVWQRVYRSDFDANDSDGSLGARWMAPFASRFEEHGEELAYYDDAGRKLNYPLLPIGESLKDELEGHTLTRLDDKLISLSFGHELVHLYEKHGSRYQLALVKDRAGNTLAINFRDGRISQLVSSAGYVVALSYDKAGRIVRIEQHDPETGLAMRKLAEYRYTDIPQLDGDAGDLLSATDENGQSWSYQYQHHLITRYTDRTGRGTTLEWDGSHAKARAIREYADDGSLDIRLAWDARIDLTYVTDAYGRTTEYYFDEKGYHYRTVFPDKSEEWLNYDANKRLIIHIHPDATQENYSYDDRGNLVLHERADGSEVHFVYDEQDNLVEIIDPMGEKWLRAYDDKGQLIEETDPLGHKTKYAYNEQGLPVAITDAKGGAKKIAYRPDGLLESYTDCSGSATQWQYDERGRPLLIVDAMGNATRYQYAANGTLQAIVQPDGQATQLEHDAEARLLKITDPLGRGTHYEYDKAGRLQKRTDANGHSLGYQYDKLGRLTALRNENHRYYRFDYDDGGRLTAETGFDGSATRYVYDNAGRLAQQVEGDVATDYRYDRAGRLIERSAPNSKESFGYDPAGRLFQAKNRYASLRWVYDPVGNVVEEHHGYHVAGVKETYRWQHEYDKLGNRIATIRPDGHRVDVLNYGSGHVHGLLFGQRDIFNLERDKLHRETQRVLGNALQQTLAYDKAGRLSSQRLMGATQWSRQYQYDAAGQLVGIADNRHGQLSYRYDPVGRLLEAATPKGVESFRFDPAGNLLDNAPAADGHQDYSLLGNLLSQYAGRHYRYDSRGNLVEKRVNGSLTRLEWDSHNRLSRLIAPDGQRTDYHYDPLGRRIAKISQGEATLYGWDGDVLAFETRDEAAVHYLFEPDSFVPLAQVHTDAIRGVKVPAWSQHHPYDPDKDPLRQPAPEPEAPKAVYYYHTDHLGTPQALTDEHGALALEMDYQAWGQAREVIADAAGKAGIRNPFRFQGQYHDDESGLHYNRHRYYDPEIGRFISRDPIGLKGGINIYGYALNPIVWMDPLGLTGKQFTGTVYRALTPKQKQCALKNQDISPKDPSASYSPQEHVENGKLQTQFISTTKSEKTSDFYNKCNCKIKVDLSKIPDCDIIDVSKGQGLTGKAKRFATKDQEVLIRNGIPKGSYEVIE

B1: VgrG6 (protein, UniProt Q7P245 1-879)
chain: MDLNSLLSSFASAFNQEQRLLTLELGTGQIAAEQLLPLSLDGEEGVSRAYRYTVTCLSPDGHIELKTLLGQPARIGIQDADGDETIRCGMVSQARLAGADGGFARYELTIEPPFALLRHRKTSRVFQDLSVPDIVKQILAEHQAANPAFARAQTLDIQVRPAPPRSYTLQYRESDFDFIVRLLHEEGYAWRFVHLDEVTERGSEASRGNSPQVELAVFDDAHSLPAAKLERVRFHRSDATEEEDGLTEWQAAHQIVPGGTTLVSYDYKPVYSQQNRDDSHIDQGQTGQALQSSLTQYDAPGLYYAGDEEQLGRYAQLRQQANDLQAKSFSGSGSVRGLLPGDWFRLDDHPAHDGDAAENREFVVTGQSFQVRNNLPQDLAQHIGTESDATPFATSIQAQRRGIPLTPAYAGTELAKPTSLGVQTATVVGPAGEEVHTDQHGRIKVQFHWQRPDEHPTIGASLDDKSSCWLRVAMPSAGAGWGHQFIPRIGQEVLVDFIEGDIDRPVITGVLYNGSHPTPDFSGAGSLPANKTLSGIKSKEHQGGGYNELLFDDTPGEVRAKLSSEPGKTQLNQGYLAHPRSNGKAQPRGDGFELRTDHHGAIRAAHGLLLTTEVQNGASGKQLAREHAQSQLDAALSLSQALAETASGQLADTMETGPEEIGPDNAKAGKKSDGHLQHHADALKAWEAGSNTDKDGKTAKDQAGQQPLLVLSAPAGIAALTEQSHTVSAGQNLNLVAQRDANHTTGRRWIHNVGQHISLFVAGVKDKVALKLIAAKGKVQAQSDAMELTADKDVAITSVKQKVQFNGKQEILLTSGGAYVRIKDGKIELHAPGTVSFKGASHDWSGPASTNLPFPTLPQGDTPSCQLAAIQHKSGMTKK
B2: VgrG5 (protein, UniProt Q7P238 1-874)
chain: MDLNALLSSFASAFGQDHRPLTLELGSGQIAAEQLLPLSLDGEEGLSRAYRYTVTCLSPDGHIELKTLLGQPARIGIQDADGDETIRCGVVSQARLAGADGGFARYELTIEPPFALLRHRKTSRVFQDLSVPDIVKQILAEHQAANPAFARTQTLDIQVKPAPPRSYTLQYRESDFDFIVRLLHEEGYAWRFVHLDEVTERGSEASRGNSPQVELAVFDDALSLPAAKLERVRFHRSDATEEEDGLTEWQAARQIVPGGTALASYDYKPVYSQQNRDDSHIDQGQTGQALQSSLTQYDAPGLYYADDEEQLGRYAQLRQQANDLQAKSFSGSGSVRGLLPGDWFRLDDHPAHDGDAAENREFVVTGQSFQVRNNLPQDLAQHIGTESDATPFATSIQAQRRGIPLTPAYAGTEHAKPKSRGVQTATVVGPAGEEVHTDQHGRIKVQFHWQRPDEHPTIGAALDDKSSCWLRVAMPSAGAGWGHQFIPRIGQEVLVDFIEGDIDRPVITGVLYNGSHPTPDFSGAGALPANKTLSGIKSKEHQGGGYNELLFDDTPGEVRAKLSSEPGKTQLNQGYLAHPRSNGKAQPRGDGFELRTDHHGAIRAAHGLLLTTEAQNGASGKQLAREHAQSQLDAALSLSQALAETASGQLADAMETGPDEIGPDNAKAGKKTDGHLQHHADALKAWEAGSNTDKDGKTAKDQAGQQPLLVLSAPAGIAALTEQSHTVSAGQNLNLVAQRDANHTTGRRWLHNVGQHISLFVAGVKDKVALKLIAAKGKVQVQAQSDAMELTADKDVTITSCKERIVVNAKQEILVTAGGGYIRIAGGNIEVHCPGTVSVKGASHDLSGPASMNPPLPTLPKDKYTPPNTHPFSE
B3: Tle1 phospholipase (CV_3971) (protein, UniProt Q7NR14 1-691)
chain: MSKVSLAPAFPERGHWPSDLNEVIKQRYAQQREIAAHCVDARGEGKPADCALVMNVSLFFDGTNNHGDSDDAADPVCSTNIRRLYHATVGKDDAQSSGYFSYYIQGVGTCFPEIGEKKPLDSGLRYASGGDARIQWGITRLIRALHLATPLEPPSEEDMAKLVEGLQYQYEKREKGPTVKYETTPDERRALVKKALKDVLAEQEKPDHKPKILKIKLFVYGFSRGAAEARAFLWRLGELIEDGALASFPIEVKFVGLLDTVASVGLTELAPGAQGHQGWADGTMKLPPWLPADCCVHLVSAHEQRLCFPLDSVGTDAVGAYPASVKGEWVYPGMHSDVGGGYPPQDQGKALDGQPLLLSQVALLHLYSLAFAAGAPLKINADRLMNANPQQLAMLKAKEPWRFMLDDVQKLFAIDDVLIRRFNAWQNFSTKHLPASRKEEGPMEAIMRAQAAQINAWRIERFSGGLQGKGGQDQSHSNFYQYASKERQTPEWRVKEEKRIWDKQSGKGKPAAPEPLLDEDKKPRLDENGNPIEWKPNLNKAYEPTLDKVQLDLGATDFTNDYLDRASLANKGNLVGILTSILTSPSRLFSADKIMDEFPLLKRDSEALHADVVADKELMALYDDHVHDSRAWFMQSSLDKLEPGGTYWRYRTIFFTDDINNKQQLDKLPEVKAERERREREKEMKRMYSGG
B4: Tle1 phospholipase (CV_3990) (protein, UniProt Q7NQZ5 1-523)
chain: MSCVSGKQEAQCQSQIHVMMFFDGTGNNIQADYYQAASGKQRPSNVARLFMTARDKPNEGYFRFYMPGVGTPFPEIDDTGGALGGGAGAGGEARILWALTRLVNAPHQYVNKSPLIADGLAKKITSNAGGLTGGVMRKVIFNTWQEKLQQALKGRKPQITQINLSVFGFSRGATEARAFVNWLYQICHQQNGAWSFAGISLRTQFLGIMDTVASVGLAQLLPNTIPATGHMAWADNNLTIHPAVEQCVHYVAGHEVRACFPLDTVRRGNSYPANTIEVMFPGSHSDVGGGYASGDLGILPAQNGQLCAIPGRRLYDAARQAGVPLLAMDQLTERVQNLLTPTQEVINDFNAYLREAKIAPGSTEKMHRQHMALYLSQRFKYRHDFAKRAPYRTASAKHQGFLQITQASLIKGLRKLYAGDPMAPDFDPARAAAKAAKQEQELQKLMPMLPEQGMSIPSEVLPETDPKKVAATMNIRLLTPAIENFLEKYIHDSMAGFIGDGVNEAKINQIGLLKFRTLYAGNE
B5: VgrG2 (protein, UniProt Q7NR10 1-872)
chain: MDLSSLLASFASAFNQDQRLLTLELGSGQVAAEQLLPQSLNGEEGVSQAYRYQLTCLSPDGAIELKTLLGQAARIGIADAQGQETIRCGVVSQARLMGSDGGFAQYGLTIEPPIALLRHRRTSRVFQDLSVPDIVQQIVHEHQAANPVFARAQTVEFKVGPAQPRSYCLQYREDDFSFIVRLLHEEGYAWRFEHVDGDAPQVKLAVFDDAYSLPPAEVERVRFHRSDATEEEDGLTDWSAARQIVPGNVALATFDYQPVSTQHTGDSSQIDQGPGGQALQSSLQDYDPQGLYYAGDAEQLSHYARLRQQAHDLQAKSFEGAGSIRGLTAGQWFRLDDHPAHEADSHEQREFVVTGQTLQVRNNLPTDLQSILPTDDQTDAPFTTRIQAQRHGIPLTPAYAGTEHAKPKSRGVQTATVVGPAGEEVHTDQHGRIKVQFHWQRPDEHPTIGAALDDKSSCWLRVAMPSAGAGWGHQFIPRIGQEVLVDFIEGDIDRPVITGVLYNGSHPTPDFSGAGSLPANKTLSGIKSKEHQGGGYNELLFDDTPGEVRAKLSSEPGKTQLNQGYLAHPRSNGKALPRGDGFELRTDHHGAIRAAHGLLLTTEAQNGASGKQLAREHAQSQLDAALSLSQALAETASGQLADAMETGPDEIGPDNAKAGKKTDGHLQHHVDALKAWEAGSNTDKDGKTAKDQAGQQPLLVLSAPAGIAALTEQSQTVSAGQNLNLVAQRDANHTTGRRWIHNVGQHISLFVAGVKDKVALKLIAAKGKVQVQAQSDAMELTADKDVTITSAKQTIHVNAKQEILLTSGGAYIRLKDGKIELHAPGTISIKGASHNFSGPDQMNPPLPRFPNTVCKQCMAQAFSQANPLVAAK
B6: VgrG1 (protein, UniProt Q7NQZ9 1-872)
chain: MDLTSLLSSFASAFTQDQRLLTLELGSGQVAAEQLLPQSLNGEEGVSQAYRYQLTCLSPDGAIELKTLLGQAARIGIADAQGQETIRCGVVSQARLMGSDGGFAQYGLTIEPPIALLRHRKTSRVFQDLSVPDIVQQIVHEHQAANPVFARAQSIEFKVGPAQPRSYCLQYREDDFSFIVRLLHEEGYAWRFEHVDGDSPQVKLVVFDDAYSLPPAEVERVRFHRSDATEEEDGLTDWSAARQIVPGNVALATFDYQPVSTQHTGDSSQIDQGPGGQALQSSLQDYDPQGLYYAGDAEQLSHYARLRQQAHDLQAKTFEGAGSIRGLTAGQWFRLDDHPAHEADSHEQREFVVTGQTLQVRNNLPTDLQSILPTGDKADAPFRTRIQAQRRGIPLTPAYAGTEHAKPKSRGVQTATVVGPAGEEVHTDQHGRIKVQFHWQRPDEHPTIGAALDDKSSCWLRVAMPSAGAGWGHQFIPRIGQEVLVDFIEGDIDRPVITGVLYNGSHPTPDFSGAGSLPANKTLSGIKSKEHQGGGYNELLFDDTPGEVRAKLSSEPGKTQLNQGYLAHPRSNGKAQPRGDGFELRTDHHGAIRAAHGLLLTTEAQNGASGKQLAREHAQSQLDAALSLSQALAETASGQLADTMETGPDEIGPDNAKAGKKTDGHLQHHADALKAWEAGSNTDKDGKTAKDQAGQQPLLVLSAPAGIASLTEQSQTVSAGQNLNLIAQRDANHTTGRRWLHNVGQHISLFVAGVKDKVALKLIAAKGKVQVQAQSDAMELTADKDVTIMSCKERIVVNAKDEILLTAGGAYIRLKGGNIEVHAPGTVSVKAAQHKLSGPDNMTIPMPVFPGKQFCLQCMLNAIKSGSPLAGQ

These results are taken from article PMC13324451 (The Journal of Biological Chemistry, 2026).

No constants are given. Whether binding was seen depends on the method and setting. In cells and extracts the contact can be indirect. These calls come from enrichment with a bait or labelling near it, and not all partners need be listed. Where a sequence is shown, tags or fusion partners need not be part of it.

The target in this assay is T1, VgrG3 with a C-terminal haemagglutinin epitope tag (VgrG3-HA) (Chromobacterium violaceum ATCC 12472). The experiment in a line: affinity purification with mass spectrometry; VgrG3-HA precipitated with HA-tag rabbit mAb magnetic beads from the soluble fraction of C. violaceum vgrG3-HA cells (untagged wild type as control); 16 h at 4 °C; 20 mM Tris-Cl pH 7.5, 150 mM NaCl, 0.5 mM EDTA, 0.1% Triton X-100; label-free quantitative MS, biological triplicates.
Consider “RhsF (Rhs family protein containing a FIX domain) (from UniProt Q7NY44 1-1513)”, for which the binding result is “binds”.
Regarding B1, the binding entry was “binds”.
Turning to B2, the binding result is given as “binds”.
Take B3: the binding entry is recorded as “binds”.
For the molecule B4, the binding result is “binds”.
As to B5, the binding result is “binds”.
As to B6, the binding result is on record as “binds”.
